Test results taken from US8820316B2, “Drug delivery apparatus” (Respironics Respiratory Drug Delivery (UK) Ltd, priority 2000, dated 2014).
For at least one compound, name, drawing or mass did not settle the structure.

Key:
[1] = Budesonide study in 125 children with asthma using the system of the invention, asthma symptom score; format: in vivo
Experimental: A study in 125 children with asthma using the system disclosed in this patent delivered three different regimes of a short duration (2-12 weeks) high delivered daily dose 200 μg followed by a long duration (12-22 weeks) low daily dose delivered dose 50 μg. Their treatment compliance was monitored electronically and their asthma symptoms by the parents using a visual analogue score. The treatment compliance over the study was 80/90% and the asthma scores reduced from a baseline of 1.23/1.27 to 0.23/0.43.

[2] = Budesonide study in 481 children with asthma using conventional nebulizers, asthma symptom score; format: in vivo; details: range over regimes
Experimental: The study in 481 children with asthma using conventional nebulizers delivered five different regimes. Nominal nebulizer doses were in the range 250/1000 μg daily and placebo over a 12 week period. Their asthma symptoms by the parents using a visual analogue scores, the asthma scores reduced from 1.21/1.33 to 0.87/0.93.

## CCCC1O[C@@H]2C[C@H]3[C@@H]4CCC5=CC(=O)C=C[C@]5(C)[C@H]4[C@@H](O)C[C@]3(C)[C@]2(C(=O)CO)O1 (some centres unmarked) [Budesonide]
[1]; low long-term daily dose, comparative data of table 1
  improvement of asthma scores, system of the invention relative to conventional nebulizer: approximately twice as much
[1]; range over three regimes, 200 μg daily (2-12 weeks) then 50 μg daily (12-22 weeks), system of the invention
  asthma scores, reduced to: 0.23/0.43
[1]; range over three regimes, system of the invention, visual analogue score
  asthma scores, baseline: 1.23/1.27
[2]; nominal nebulizer doses 250/1000 μg daily, 12 week period
  asthma scores, reduced to: 0.87/0.93
[2]; visual analogue scores
  asthma scores, reduced from: 1.21/1.33
